# Reference: the supplement of paper PMC11732987, “Enantioselective OTUD7B fragment discovery through chemoproteomics screening and high-throughput optimisation” (Communications Chemistry, 2025)
# Amino acid sequences for entries named in this document (tags omitted). A change or cut given only in a name is not applied to a line headed by its entry. Residues count along the entry.
# UniProt Q99611, 2-30: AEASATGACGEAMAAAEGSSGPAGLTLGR
# UniProt Q7Z333: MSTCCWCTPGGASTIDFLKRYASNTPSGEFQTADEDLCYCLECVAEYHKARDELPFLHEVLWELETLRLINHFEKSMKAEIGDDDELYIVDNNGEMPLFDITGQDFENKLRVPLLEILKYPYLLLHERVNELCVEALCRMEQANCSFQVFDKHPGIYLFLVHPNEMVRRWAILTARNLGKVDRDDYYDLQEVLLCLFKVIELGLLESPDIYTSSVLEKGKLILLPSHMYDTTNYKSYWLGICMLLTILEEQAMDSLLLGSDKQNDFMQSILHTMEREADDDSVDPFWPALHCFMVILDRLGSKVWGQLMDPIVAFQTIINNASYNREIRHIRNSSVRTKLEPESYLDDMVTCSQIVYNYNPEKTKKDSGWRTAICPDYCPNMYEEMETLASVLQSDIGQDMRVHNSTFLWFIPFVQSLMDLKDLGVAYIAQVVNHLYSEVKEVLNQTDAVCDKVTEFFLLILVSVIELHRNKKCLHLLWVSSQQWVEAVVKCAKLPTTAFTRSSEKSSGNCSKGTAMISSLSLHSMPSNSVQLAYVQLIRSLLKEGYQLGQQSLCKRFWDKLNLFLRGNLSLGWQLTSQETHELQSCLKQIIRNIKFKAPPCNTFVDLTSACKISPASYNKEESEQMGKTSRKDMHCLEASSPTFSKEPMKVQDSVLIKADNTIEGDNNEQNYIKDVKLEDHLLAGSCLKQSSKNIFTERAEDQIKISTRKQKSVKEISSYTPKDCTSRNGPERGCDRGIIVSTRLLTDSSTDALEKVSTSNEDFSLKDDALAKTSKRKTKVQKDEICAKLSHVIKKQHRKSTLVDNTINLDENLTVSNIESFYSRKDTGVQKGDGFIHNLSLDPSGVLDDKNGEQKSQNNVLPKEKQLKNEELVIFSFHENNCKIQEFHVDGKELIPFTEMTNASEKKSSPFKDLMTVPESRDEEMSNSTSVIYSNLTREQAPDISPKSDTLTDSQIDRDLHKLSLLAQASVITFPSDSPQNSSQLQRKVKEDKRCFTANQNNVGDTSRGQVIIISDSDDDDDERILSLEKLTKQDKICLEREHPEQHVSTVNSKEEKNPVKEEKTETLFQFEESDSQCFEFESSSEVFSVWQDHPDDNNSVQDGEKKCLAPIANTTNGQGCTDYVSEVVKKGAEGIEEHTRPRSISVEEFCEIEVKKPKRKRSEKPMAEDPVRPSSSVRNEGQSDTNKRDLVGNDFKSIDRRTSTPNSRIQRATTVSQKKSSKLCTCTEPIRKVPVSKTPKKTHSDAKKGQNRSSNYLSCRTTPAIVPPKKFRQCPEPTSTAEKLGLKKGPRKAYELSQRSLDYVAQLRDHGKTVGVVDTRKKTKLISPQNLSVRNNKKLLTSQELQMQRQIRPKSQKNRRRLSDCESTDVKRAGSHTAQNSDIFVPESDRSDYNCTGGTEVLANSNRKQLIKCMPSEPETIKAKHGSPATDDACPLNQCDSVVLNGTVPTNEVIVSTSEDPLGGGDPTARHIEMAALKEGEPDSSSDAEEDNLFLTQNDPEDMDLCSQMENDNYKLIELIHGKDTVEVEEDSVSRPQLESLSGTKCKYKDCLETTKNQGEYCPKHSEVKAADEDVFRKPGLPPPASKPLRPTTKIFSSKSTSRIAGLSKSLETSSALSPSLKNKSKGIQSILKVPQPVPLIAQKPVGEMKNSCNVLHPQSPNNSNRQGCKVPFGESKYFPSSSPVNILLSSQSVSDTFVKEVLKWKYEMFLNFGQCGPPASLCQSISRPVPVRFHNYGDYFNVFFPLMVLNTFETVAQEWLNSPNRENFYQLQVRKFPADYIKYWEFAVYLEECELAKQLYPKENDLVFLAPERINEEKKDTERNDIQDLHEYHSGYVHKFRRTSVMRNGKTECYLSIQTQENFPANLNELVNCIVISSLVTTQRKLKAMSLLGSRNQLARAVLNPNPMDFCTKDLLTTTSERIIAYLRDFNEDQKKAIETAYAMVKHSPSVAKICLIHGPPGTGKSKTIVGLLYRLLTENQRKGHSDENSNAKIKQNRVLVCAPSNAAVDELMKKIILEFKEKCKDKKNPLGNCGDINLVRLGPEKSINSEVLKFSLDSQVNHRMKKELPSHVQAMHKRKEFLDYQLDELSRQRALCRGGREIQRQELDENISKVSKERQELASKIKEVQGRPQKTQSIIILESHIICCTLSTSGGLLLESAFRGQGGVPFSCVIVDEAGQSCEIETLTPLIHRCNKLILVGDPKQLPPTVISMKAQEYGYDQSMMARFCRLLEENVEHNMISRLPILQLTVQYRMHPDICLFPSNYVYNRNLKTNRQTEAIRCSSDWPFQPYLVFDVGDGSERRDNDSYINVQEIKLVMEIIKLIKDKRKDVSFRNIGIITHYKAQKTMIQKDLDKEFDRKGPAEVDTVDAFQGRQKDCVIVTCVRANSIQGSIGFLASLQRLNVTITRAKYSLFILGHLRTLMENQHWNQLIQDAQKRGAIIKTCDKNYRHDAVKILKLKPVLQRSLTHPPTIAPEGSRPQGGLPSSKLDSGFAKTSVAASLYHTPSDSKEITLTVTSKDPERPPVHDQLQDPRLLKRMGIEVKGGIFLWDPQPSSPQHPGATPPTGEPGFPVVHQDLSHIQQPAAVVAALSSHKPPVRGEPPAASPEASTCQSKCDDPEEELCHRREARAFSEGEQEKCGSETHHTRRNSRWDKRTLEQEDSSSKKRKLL
# UniProt P55735: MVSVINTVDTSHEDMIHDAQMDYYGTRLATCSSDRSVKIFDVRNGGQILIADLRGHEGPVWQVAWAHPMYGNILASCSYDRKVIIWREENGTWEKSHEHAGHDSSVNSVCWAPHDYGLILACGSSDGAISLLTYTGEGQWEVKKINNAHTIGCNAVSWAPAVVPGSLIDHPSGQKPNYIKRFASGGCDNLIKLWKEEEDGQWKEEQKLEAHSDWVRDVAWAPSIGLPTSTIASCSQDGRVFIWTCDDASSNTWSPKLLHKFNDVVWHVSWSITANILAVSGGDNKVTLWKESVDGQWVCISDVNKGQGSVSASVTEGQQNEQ
# UniProt A0MZ66, whole entry, looked up: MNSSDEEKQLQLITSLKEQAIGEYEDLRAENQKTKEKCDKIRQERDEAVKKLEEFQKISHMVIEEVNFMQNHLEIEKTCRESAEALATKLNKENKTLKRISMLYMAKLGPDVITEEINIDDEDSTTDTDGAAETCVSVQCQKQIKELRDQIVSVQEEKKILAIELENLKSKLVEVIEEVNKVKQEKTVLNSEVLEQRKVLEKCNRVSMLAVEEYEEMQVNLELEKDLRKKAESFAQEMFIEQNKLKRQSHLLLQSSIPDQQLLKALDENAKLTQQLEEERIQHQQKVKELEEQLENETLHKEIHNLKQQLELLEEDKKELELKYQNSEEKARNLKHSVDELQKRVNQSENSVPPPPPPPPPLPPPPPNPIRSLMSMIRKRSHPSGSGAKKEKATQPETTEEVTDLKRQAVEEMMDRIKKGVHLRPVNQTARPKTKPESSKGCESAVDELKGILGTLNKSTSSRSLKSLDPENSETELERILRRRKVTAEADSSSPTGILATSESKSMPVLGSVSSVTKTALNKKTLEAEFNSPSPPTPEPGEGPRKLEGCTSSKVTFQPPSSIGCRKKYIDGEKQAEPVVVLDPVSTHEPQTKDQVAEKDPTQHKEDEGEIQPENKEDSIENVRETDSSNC
# UniProt Q6IQ49, 292-311: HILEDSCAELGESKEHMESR
# UniProt Q12874: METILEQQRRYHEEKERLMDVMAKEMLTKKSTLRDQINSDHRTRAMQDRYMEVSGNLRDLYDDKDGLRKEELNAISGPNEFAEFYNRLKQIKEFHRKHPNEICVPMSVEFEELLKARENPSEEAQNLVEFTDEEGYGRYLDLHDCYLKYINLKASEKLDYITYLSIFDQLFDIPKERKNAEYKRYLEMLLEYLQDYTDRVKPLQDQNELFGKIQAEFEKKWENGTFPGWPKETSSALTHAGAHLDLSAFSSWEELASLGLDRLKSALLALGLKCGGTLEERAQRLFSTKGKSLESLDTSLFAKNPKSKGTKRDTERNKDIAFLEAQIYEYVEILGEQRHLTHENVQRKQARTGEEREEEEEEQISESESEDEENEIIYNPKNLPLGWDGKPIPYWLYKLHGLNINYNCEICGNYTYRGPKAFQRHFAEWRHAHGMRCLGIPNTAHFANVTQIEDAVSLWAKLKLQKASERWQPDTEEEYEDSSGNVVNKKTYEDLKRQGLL
# UniProt Q15464, 188-208: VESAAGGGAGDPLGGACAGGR
# UniProt Q9Y6Y8: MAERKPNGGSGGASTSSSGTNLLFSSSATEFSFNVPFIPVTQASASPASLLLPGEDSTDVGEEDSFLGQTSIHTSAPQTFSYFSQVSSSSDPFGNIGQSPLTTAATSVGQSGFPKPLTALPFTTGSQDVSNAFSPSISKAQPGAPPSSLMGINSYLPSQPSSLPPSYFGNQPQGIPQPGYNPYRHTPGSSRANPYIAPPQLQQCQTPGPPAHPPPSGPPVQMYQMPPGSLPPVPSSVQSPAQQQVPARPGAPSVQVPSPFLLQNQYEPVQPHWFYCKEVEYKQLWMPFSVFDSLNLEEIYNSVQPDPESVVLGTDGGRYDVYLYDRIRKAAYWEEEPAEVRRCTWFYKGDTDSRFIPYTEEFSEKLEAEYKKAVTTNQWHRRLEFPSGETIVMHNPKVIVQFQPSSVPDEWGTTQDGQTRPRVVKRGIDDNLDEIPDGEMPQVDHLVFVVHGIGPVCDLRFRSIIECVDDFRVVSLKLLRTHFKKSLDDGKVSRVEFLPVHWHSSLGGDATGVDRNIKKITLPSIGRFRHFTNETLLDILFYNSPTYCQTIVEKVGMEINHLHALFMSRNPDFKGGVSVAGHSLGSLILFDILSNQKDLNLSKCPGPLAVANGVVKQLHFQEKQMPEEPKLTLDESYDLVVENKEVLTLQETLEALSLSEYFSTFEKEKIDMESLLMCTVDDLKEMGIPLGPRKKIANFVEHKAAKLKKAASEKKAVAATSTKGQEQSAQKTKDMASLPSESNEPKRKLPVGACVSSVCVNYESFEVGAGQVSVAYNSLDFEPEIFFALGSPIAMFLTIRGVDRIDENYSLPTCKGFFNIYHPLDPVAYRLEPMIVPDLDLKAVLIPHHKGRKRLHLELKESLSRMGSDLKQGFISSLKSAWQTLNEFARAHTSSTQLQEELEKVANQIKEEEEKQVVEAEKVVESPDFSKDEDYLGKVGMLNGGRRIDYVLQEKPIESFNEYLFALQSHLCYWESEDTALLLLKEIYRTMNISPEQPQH
# UniProt Q9NXA8: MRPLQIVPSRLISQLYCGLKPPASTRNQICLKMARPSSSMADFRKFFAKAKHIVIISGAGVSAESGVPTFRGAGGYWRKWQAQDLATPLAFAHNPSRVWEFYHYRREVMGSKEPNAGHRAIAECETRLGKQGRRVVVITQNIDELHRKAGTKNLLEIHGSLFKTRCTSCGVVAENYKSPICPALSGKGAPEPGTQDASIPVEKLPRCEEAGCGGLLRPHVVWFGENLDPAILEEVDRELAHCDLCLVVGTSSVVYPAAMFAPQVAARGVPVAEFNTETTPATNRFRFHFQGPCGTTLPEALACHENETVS
# UniProt Q9P0V9, 325-351: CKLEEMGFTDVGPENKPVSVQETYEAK
# UniProt Q96KG9: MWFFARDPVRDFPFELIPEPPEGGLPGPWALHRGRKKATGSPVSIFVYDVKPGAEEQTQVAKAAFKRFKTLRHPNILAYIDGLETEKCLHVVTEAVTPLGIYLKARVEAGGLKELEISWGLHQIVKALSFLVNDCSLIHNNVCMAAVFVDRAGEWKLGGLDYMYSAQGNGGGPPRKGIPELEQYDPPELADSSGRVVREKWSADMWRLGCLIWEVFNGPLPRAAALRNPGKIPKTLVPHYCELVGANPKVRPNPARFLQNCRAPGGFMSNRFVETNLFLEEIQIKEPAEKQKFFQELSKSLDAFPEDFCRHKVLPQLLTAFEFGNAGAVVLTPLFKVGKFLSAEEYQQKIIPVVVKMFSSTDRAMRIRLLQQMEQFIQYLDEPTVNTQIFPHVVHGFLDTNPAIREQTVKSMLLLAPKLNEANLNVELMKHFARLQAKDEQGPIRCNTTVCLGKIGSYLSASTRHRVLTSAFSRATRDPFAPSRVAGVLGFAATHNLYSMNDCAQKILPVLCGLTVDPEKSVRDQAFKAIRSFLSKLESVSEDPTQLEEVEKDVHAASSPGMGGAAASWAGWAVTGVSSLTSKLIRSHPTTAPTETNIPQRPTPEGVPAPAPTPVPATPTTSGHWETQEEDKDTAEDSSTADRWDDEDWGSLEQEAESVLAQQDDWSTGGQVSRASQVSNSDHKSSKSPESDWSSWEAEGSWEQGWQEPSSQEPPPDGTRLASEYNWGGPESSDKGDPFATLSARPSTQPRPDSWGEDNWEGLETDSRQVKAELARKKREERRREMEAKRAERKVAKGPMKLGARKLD
# The list shows a part of the results. The data scatter; read single values as rough.
# How the values were obtained:
# [1] = compound: ClCC(=O)N[C@@H]1CCCc2ccccc12; assay: log2 mean competition ratio of IA-DTB cysteine labelling (DMSO/compound) (log2 ratio); higher = stronger cysteine engagement by compound; conditions: treatment time: 4 h, cell line lysate: HEK293T
# Method: (§1)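 IA-DTB competitive cysteine chemoproteomics in HEK293T RIPA lysate. Lysates were treated with compound 29 or 30 at 50 or 200 µM for 4 h, then IA-DTB (500 µM, 1 h), trypsin-digested, NeutrAvidin-enriched and analysed by diaPASEF. Competition ratio = intensity DMSO / intensity compound (n=4 treated, n=64 DMSO); binding: mean log2 CR ≥ 1 and p ≤ 0.05 plus QC filters. Target is the cysteine site.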
# [2] = compound: ClCC(=O)N[C@H]1CCCc2ccccc12; assay: as above; conditions: treatment time: 4 h, cell line lysate: HEK293T
# Method: as §1
Target,log2 mean competition ratio ([1]; 50 µM),log2 mean competition ratio ([1]; 200 µM),log2 mean competition ratio ([2]; 50 µM),log2 mean competition ratio ([2]; 200 µM)
SENP1 C60,-0.119,0.0881,0.197,0.0624
SEPHS2 C10 (UniProt Q99611),0.0159,-0.285,0.148,-0.196
SETDB1 C92 (UniProt Q15047),0.158,0.0114,-0.151,0.0639
SETX C1262 (UniProt Q7Z333),0.187,0.0592,0.582,0.0664
SETD5 C821,0.138,-0.154,-0.102,-0.237
SEC13 C187 (UniProt P55735),-0.0412,-0.114,-0.178,-0.0404
SHMT2 C91,0.269,0.0331,0.0445,0.000689
SENP7 C980 (UniProt Q9BQF6),-0.127,0.164,-0.22,-0.133
SEC13 C245 (UniProt P55735),-0.0973,0.000821,0.248,0.0381
SENP7 C125 (UniProt Q9BQF6),-0.12,0.0544,-0.155,0.11
SHTN1 C550 (UniProt A0MZ66),-0.042,-0.019,0.139,-0.0509
SDE2 C298 (UniProt Q6IQ49),0.0323,0.31,-0.336,0.0988
SF3A3 C274 (UniProt Q12874),0.262,-0.0777,0.199,-0.18
SAPCD2 C195,-0.393,-0.333,0.395,-0.375
SH3BP5L C201 (UniProt Q7L8J4),0.072,0.109,0.105,-0.0202
SHPK C38 (UniProt Q9UHJ6),0.264,0.148,0.234,0.17
SETX C1915 (UniProt Q7Z333),0.269,0.463,-0.503,0.0717
SHB C204 (UniProt Q15464),-0.0398,-0.00347,0.607,0.00451
SH3BP5L C109 (UniProt Q7L8J4),0.0144,0.579,-0.54,0.669
SHPRH C845 (UniProt Q149N8),0.156,0.0452,-0.322,0.0336
SH3RF3 C194,0.0718,0.263,-0.341,0.281
SIMC1 C216 (UniProt Q8NDZ2),-0.051,0.163,-0.271,0.301
SH3BP4 C372 (UniProt Q9P0V3),0.173,-0.00476,-0.026,-0.162

# Reprinted at random: two records from the list, in no set order.
Target,log2 mean competition ratio ([1]; 50 µM),log2 mean competition ratio ([1]; 200 µM),log2 mean competition ratio ([2]; 50 µM),log2 mean competition ratio ([2]; 200 µM)
SF3A3 C274 (UniProt Q12874),0.262,-0.0777,0.199,-0.18
SEC13 C187 (UniProt P55735),-0.0412,-0.114,-0.178,-0.0404

# Later entries.

Target,log2 mean competition ratio ([1]; 50 µM),log2 mean competition ratio ([1]; 200 µM),log2 mean competition ratio ([2]; 50 µM),log2 mean competition ratio ([2]; 200 µM)
SETX C688 (UniProt Q7Z333),0.0458,0.319,-0.349,-0.0229
SIPA1L2 C1054 (UniProt Q9P2F8),0.365,0.243,0.0135,0.0979
SDE2 C415 (UniProt Q6IQ49),0.166,0.0204,0.0208,0.00201
SF1 C279,-0.185,0.0671,0.0168,0.128
SEC13 C31 (UniProt P55735),-0.473,0.0898,-0.552,0.00717
SEC23IP C604 (UniProt Q9Y6Y8),0.409,0.0976,-0.146,0.0515
SEMA4F C170,-0.0797,–,-0.304,–
SIRT5 C181 (UniProt Q9NXA8),-0.187,-0.643,0.176,-0.0581
SFMBT1 C810,-0.162,-0.0613,0.312,0.0185
SENP5 C473 (UniProt Q96HI0),-0.0419,0.121,-0.275,0.186
SGSM3 C454 (UniProt Q96HU1),-0.0126,-0.2,-0.0458,0.0577
SEPTIN10 C325 (UniProt Q9P0V9),-0.268,-0.214,0.182,-0.401
SCYL1 C241 (UniProt Q96KG9),0.0245,0.292,-0.143,0.21
SHROOM3 C1467,-0.599,0.537,-0.21,0.245
SH3BP4 C833 (UniProt Q9P0V3),0.138,0.0245,0.627,0.0553
SF3B3 C1156 (UniProt Q15393),-0.0575,-0.325,0.137,-0.288
SGO2 C1067 (UniProt Q562F6),-0.378,-0.00607,-0.229,0.0917
SH3PXD2A C749 (UniProt Q5TCZ1),0.125,0.0185,0.448,0.131
SELENOO C364 (UniProt Q9BVL4),-0.0834,-0.235,-0.0601,-0.252
SEMA4F C53,0.0497,–,-0.161,-0.232
SIPA1 C755 (UniProt Q96FS4),0.356,0.316,-0.67,0.0357
SCYL1 C309 (UniProt Q96KG9),-0.159,0.219,-0.0376,0.358
SIN3A C1167 (UniProt Q96ST3),-0.00363,0.423,-0.164,0.45
